In article PMC4245888 (Frontiers in Pharmacology, 2014):
Where “and” joins values, the source holds several entries; their conditions need not be identical. Equal values may be shown once.

Key:
[1] = cited from earlier work
[2] = Pharmacokinetics of ATO in plasma, single-dose three-period crossover study, ATO alone vs ATO–EZE combination; assay type: in vivo; conditions: both sexes, human, po, 80 mg

Q: What does the source list for `CC(C)c1c(C(=O)Nc2ccccc2)c(-c2ccccc2)c(-c2ccc(F)cc2)n1CC[C@@H](O)C[C@@H](O)CC(=O)O` [ATO, Atorvastatin]?
A: AUC0-t of ATO ([1]; after 80 mg dose, ref Jacobson, 2004): 102 to 134 ng·h/mL; Cmax of ATO ([1]; after doses of 20 and 40 mg of ATO, ref Lennernäs (2003)): 6.9 ng/mL and 12.7 ng/mL; time to maximum plasma concentrations of ATO ([1]; following oral administration, ref Pfizer Inc. Lipitor®, 2009): 1 to 2 h; AUC(0-inf) [2]: 87.4 ± 40.5 ng·h/mL; AUC(0-t) [2]: 76 ± 36.1 ng·h/mL; Cmax [2]: 18.8 ± 8.89 ng/mL; Tmax [2]: 2.08 ± 1.41 h
